“And” between values parts separate entries of the source, which are not always exact repeats. Identical values can stand only once. The shares of active, inactive and inconclusive entries below differ from those in the screen. For some of these results: Potencies of inconclusive entries are doubtful fits and often do not repeat. A structure can be active in one record and inactive in another. The source made the active and inactive calls. Rule for the calls: active = hit-call score of the fitted dose curve at least 0.9, where 1 is the maximum; inconclusive = response in the unintended direction; inactive = score below 0.9.
Key:
[1] = biological target: Estrogen-related receptor gamma (Homo sapiens) (UniProt P62508); experiment: ATG_ERRg_TRANS: Attagene TRANS-FACTORIAL HepG2 Assay for human Estrogen-Related Receptor gamma (ERRg) (AID 2282977); settings: HepG2 Attagene TRANS reporter, ERRg transactivation;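 note: hits increase reporter signal over DMSO so potencies reflect activators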
In short: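 Transfect HepG2 with multiple GAL4-UAS reporter transcription units; dose chemicals 24 h; isolate RNA, reverse-transcribe with oligo(dT), PCR-amplify, label with 6-FAM, digest with HpaI; size fragments by capillary electrophoresis. DMSO serves as negative control.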

Protein sequences, listed by entry. Tags and fused reporters are not part of them. Lines headed by an entry give the natural chain unless they say otherwise; changes in a name come on top.
UniProt P62508: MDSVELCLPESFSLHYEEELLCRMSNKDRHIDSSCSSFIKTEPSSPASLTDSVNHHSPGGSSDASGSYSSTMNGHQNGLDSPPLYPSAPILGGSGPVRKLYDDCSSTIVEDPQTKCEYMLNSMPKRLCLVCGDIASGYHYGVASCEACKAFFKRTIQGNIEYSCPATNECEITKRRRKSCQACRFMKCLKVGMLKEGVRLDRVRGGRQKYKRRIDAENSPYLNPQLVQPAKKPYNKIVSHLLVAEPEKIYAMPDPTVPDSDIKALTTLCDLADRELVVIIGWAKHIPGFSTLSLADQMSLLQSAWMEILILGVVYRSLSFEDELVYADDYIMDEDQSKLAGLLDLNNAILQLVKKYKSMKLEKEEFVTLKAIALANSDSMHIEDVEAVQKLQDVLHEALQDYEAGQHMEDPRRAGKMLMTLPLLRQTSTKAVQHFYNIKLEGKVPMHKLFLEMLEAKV
UniProt P55055, whole entry, looked up: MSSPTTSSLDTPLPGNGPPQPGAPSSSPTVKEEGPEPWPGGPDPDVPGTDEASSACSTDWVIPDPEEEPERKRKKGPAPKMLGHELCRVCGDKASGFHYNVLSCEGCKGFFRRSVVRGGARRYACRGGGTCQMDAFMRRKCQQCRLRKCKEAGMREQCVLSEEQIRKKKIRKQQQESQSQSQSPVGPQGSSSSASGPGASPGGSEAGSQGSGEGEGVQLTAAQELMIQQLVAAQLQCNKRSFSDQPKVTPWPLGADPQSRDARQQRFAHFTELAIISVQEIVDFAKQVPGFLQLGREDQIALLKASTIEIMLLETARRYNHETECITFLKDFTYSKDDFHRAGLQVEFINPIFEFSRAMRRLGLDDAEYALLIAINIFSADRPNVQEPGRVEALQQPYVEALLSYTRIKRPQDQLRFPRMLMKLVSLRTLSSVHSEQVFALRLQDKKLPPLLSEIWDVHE
UniProt Q03181: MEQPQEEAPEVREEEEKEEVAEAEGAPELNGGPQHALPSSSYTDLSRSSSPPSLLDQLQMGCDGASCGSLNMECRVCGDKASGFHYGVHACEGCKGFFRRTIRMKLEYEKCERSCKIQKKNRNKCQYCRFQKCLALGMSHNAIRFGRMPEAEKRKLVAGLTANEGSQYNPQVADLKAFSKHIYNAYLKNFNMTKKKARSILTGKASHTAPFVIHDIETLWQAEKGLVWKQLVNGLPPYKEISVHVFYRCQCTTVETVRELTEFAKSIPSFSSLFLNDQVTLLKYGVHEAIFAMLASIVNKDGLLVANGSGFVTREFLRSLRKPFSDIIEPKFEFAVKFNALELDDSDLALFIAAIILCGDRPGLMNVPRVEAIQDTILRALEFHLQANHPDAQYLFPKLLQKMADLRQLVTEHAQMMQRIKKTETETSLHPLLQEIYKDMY
UniProt P37231: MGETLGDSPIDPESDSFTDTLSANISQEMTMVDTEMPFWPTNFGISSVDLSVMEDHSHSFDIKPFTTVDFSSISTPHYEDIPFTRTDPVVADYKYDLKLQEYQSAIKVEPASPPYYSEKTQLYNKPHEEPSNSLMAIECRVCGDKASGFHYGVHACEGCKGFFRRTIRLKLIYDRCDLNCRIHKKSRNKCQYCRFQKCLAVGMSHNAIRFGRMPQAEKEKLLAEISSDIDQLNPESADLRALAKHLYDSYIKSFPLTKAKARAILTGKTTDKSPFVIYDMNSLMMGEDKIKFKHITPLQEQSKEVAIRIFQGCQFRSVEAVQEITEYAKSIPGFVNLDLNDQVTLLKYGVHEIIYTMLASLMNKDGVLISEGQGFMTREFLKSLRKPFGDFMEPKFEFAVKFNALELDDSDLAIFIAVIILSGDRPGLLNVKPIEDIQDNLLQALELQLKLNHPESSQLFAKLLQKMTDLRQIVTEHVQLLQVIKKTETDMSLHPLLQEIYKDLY
UniProt P11473: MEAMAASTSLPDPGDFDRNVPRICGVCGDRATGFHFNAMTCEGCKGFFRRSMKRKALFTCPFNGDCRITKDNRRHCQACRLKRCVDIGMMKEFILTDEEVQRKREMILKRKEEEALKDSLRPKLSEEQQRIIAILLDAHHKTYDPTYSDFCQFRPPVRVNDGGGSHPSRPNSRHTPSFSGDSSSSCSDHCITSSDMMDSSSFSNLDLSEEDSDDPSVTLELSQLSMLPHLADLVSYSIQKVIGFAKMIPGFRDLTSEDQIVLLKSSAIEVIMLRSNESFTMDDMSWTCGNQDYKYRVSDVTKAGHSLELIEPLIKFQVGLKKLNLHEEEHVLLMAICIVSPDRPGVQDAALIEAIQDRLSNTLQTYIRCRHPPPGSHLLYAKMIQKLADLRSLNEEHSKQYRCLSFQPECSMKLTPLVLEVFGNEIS
UniProt P19793: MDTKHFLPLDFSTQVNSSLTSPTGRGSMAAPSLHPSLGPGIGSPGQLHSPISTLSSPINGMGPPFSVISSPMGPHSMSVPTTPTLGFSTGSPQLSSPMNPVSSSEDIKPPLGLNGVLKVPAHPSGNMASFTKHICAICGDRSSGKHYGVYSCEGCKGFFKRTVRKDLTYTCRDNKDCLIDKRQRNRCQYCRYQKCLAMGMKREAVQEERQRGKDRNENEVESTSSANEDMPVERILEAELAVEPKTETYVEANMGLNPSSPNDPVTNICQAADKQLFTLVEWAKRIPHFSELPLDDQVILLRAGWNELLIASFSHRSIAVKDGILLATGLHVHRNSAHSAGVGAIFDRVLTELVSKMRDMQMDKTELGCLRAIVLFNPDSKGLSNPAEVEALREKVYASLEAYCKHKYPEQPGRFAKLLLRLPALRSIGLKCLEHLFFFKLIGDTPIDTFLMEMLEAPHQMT
UniProt P04637, whole entry, looked up: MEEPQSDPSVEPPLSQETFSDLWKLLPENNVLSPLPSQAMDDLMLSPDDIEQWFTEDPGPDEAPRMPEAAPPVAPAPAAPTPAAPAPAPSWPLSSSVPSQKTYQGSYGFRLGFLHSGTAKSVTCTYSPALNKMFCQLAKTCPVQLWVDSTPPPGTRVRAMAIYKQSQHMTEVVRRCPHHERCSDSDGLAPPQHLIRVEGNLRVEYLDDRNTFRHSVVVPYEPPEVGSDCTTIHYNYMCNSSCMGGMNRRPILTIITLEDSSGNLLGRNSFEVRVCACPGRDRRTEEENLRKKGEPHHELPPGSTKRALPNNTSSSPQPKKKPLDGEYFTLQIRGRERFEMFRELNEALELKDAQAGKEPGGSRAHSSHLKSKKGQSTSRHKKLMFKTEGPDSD
UniProt P04406: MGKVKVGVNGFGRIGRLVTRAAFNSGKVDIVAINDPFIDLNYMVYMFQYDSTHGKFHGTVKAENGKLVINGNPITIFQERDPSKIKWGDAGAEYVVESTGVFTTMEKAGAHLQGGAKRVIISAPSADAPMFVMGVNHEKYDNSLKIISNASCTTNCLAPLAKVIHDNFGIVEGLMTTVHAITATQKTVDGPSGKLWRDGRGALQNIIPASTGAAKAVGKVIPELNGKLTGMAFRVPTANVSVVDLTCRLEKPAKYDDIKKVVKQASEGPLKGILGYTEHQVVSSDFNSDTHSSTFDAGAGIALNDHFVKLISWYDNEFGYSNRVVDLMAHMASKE
UniProt P04150: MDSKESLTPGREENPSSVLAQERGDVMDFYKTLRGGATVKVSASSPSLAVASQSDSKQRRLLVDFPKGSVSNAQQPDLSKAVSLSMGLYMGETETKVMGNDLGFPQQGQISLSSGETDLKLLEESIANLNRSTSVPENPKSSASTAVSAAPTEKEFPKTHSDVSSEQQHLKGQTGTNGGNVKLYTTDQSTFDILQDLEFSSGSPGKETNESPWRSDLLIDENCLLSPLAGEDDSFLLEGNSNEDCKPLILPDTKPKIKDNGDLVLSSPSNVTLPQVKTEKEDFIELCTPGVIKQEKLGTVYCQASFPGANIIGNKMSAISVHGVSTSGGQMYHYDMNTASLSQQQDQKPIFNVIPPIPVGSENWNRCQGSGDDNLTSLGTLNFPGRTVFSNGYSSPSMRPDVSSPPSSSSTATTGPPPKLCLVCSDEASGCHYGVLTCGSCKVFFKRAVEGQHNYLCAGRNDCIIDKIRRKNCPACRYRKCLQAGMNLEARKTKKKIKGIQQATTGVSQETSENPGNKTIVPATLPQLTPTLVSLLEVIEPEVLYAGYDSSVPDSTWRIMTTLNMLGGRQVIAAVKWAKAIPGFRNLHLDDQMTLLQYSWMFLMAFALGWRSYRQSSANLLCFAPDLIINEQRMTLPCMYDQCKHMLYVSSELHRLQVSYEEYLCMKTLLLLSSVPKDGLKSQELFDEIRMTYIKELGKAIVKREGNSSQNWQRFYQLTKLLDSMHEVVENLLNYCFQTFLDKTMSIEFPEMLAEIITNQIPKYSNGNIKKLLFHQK
UniProt Q96RI1: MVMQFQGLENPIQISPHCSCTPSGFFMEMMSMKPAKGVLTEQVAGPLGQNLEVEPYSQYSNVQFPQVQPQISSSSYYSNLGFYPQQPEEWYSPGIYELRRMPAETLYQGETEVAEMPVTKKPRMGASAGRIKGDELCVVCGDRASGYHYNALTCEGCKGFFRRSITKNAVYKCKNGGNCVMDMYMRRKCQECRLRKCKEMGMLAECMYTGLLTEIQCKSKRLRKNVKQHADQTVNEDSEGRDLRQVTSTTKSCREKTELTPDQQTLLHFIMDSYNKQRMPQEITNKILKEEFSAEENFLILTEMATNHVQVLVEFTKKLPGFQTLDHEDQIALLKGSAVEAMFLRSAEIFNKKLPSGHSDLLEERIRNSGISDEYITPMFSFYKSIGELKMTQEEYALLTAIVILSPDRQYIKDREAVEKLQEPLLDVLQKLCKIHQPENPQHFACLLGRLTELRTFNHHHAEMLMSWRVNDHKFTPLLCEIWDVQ

[2] = biological target: Oxysterols receptor LXR-beta (Homo sapiens) (UniProt P55055); experiment: ATG_LXRb_TRANS: Attagene TRANS-FACTORIAL HepG2 Assay for human Liver X Receptor beta (LXRb) (AID 2282981); settings: HepG2 Attagene TRANS GAL4-LXRb reporter, mRNA
In short: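 In this TRANS format, exogenous chimeric NR-Gal4 protein activity, not endogenous factors, drives reporter expression in transfected human HepG2 cells. Exposure lasted 24 h; reporter mRNA was read by fluorescent capillary electrophoresis.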

[3] = ATG_M_06_TRANS: Attagene TRANS-FACTORIAL HepG2 Assay for M06 Transcription Factor (Internal Marker) (AID 2282983); settings: HepG2 Attagene TRANS M06 internal marker reporter;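 for AC50: potency for rise in reporter mRNA above DMSO baseline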
In short: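 Internal-marker background readout from a multiplexed TRANS reporter system in HepG2; 24 h dosing; mRNA induction quantified by RT-PCR plus capillary electrophoresis fluorescence; DMSO as negative control and baseline.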

[4] = biological target: human Peroxisome Proliferator-activated Receptor delta (PPARd), PPARD (gene 5467) (UniProt Q03181); experiment: ATG_PPARd_TRANS: Attagene TRANS-FACTORIAL HepG2 Assay for human Peroxisome Proliferator-activated Receptor delta (PPARd) (AID 2283002)
In short: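 Measured quantity: GAL4-UAS reporter transcript induction in HepG2 after 24 h chemical dosing, with NR-Gal4 chimeras supplied by transient transfection. Detection by RT-PCR and capillary electrophoresis; upward fit against DMSO.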

[5] = biological target: Peroxisome proliferator-activated receptor gamma (Homo sapiens) (UniProt P37231); experiment: ATG_PPARg_TRANS: Attagene TRANS-FACTORIAL HepG2 Assay for human Peroxisome Proliferator-activated Receptor-gamma (PPARg) (AID 2283007)
In short: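 Twenty-four hours after chemical dosing of transiently transfected HepG2 cells, isolated RNA was converted to cDNA, reporter sequences amplified and 6-FAM-labelled, then HpaI-digested and analysed by capillary electrophoresis. Signal increase against DMSO was fitted.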

[6] = biological target: human Vitamin D Receptor (VDR), VDR (gene 7421) (UniProt P11473); experiment: ATG_VDR_TRANS: Attagene TRANS-FACTORIAL HepG2 Assay for human Vitamin D Receptor (VDR) (AID 2283022)
In short: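 Multiplexed TRANS reporter in HepG2; 24 h treatment; reporter mRNA by RT-PCR plus capillary electrophoresis; upregulation scored relative to DMSO.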

[7] = biological target: Retinoic acid receptor RXR-alpha (Homo sapiens) (UniProt P19793); experiment: OT_NURR1_NURR1RXRa_0480: Odyssey Thera (OT) 8-hour HEK293T Protein Complementation Assay for Nurr1/retinoid X receptor (RXR) (AID 2283385)
In short: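 8 h compound exposure, HEK293T; Nurr1/RXRα fragment complementation; fluorescence intensity; positive fitting direction vs DMSO baseline.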

[8] = biological target: Retinoic acid receptor RXR-alpha (Homo sapiens) (UniProt P19793); experiment: OT_NURR1_NURR1RXRa_1440: Odyssey Thera (OT) 24-hour HEK293T Protein Complementation Assay for Nurr1/retinoid X receptor (RXR) (AID 2283386)
In short: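 Interaction of Nurr1 with RXRα brings fused reporter fragments together in human HEK293T cells, restoring a functional reporter. Fluorescence intensity is measured 24 h after chemical treatment, and values are analysed in the positive direction against DMSO.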

[9] = biological target: Cellular tumor antigen p53 (Homo sapiens) (UniProt P04637); experiment: TOX21_p53_BLA_p2_ratio: Tox21 HCT-116 p53 Agonism Beta-lactamase Assay, Ratio, Phase 2 (AID 2283592)
In short: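 Human colon HCT116 cells with an inducible p53 beta-lactamase reporter are exposed to test chemicals for 16 h at 37C. Reporter induction is read as the 460/530 nm emission ratio after CCF4-AM loading, normalized to DMSO.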

[10] = biological target: Cellular tumor antigen p53 (Homo sapiens) (UniProt P04637); experiment: TOX21_p53_BLA_p3_ratio: Tox21 HCT-116 p53 Agonism Beta-lactamase Assay, Ratio, Phase 3 (AID 2283596)
In short: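 HCT116 p53-bla cells (4000/well) given compound in DMSO (217-fold dilution) after 5 h, incubated 16 h at 37C. CCF4-AM substrate 2 h at room temperature; 460/530 nm emission ratio, gain fitted against DMSO.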

[11] = biological target: Cellular tumor antigen p53 (Homo sapiens) (UniProt P04637); experiment: TOX21_p53_BLA_p5_ratio: Tox21 HCT-116 p53 Agonism Beta-lactamase Assay, Ratio, Phase 5 (AID 2283599)
In short: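 HCT-116 cells carrying a p53-inducible beta-lactamase reporter were seeded at 4000 cells/well and dosed after 5 h with compound in DMSO (217-fold dilution). After 16 h at 37C, CCF4-AM substrate was added for 2 h, and the 460/530 nm emission ratio was scored as gain-of-signal versus DMSO.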

[12] = biological target: Cellular tumor antigen p53 (Homo sapiens) (UniProt P04637); experiment: TOX21_p53_BLA_p4_ratio: Tox21 HCT-116 p53 Agonism Beta-lactamase Assay, Ratio, Phase 4 (AID 2283601)
In short: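 HCT116 cells carrying an inducible beta-lactamase reporter were plated at 4000 cells/well, rested 5 h, then exposed to compounds in DMSO (217-fold dilution) for 16 h at 37C. CCF4-AM substrate was loaded 2 h at room temperature; 460/530 nm emission ratio scored gain-of-signal versus DMSO.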

[13] = read-out: HMG-CoA synthase (HMGCS2), HMGCS2 (gene 3158); experiment: CLD_HMGCS2_24hr: CellzDirect (CLD) Gene Expression Assay for HMG-CoA synthase (HMGCS2) at 24 hours (AID 2283691)
In short: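 Primary human hepatocytes from two donor preparations, dosed daily with fresh solutions; vehicle 0.2% DMSO, 24 h harvest. HMGCS2 mRNA quantified by qNPA with S1 nuclease digestion and chemiluminescence; gain fitted versus DMSO, cytotoxicity annotated by morphology.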

[14] = read-out: Glyceraldehyde-3-phosphate dehydrogenase (Homo sapiens) (UniProt P04406); experiment: CLD_GAPDH_24hr: CellzDirect (CLD) Gene Expression Assay for Baseline Control (Glyceraldehyde 3-phosphate dehydrogenase) at 24 hours (AID 2283692)
In short: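 Primary human hepatocytes (two donor preparations) dosed daily for two days, 0.2% DMSO vehicle; GAPDH mRNA measured at 24 h by qNPA chemiluminescence as a background control, gain-of-signal fitted against DMSO.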

[15] = read-out: HMG-CoA synthase (HMGCS2), HMGCS2 (gene 3158); experiment: CLD_HMGCS2_48hr: CellzDirect (CLD) Gene Expression Assay for HMG-CoA synthase (HMGCS2) at 48 hours (AID 2283711)
In short: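 Primary human hepatocytes from two donors dosed daily for two days, 0.2% DMSO vehicle. HMGCS2 mRNA measured 48 h after dosing by quantitative nuclease protection assay with chemiluminescent read-out; induction fitted relative to DMSO, cytotoxicity flagged by microscopy.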

[16] = CCTE_Harrill_HTTr_CellCount_MCF7: CCTE's Cell Proliferation Assessment for the High-Throughput Transcriptomics (HTTr) Platform, Harrill Lab (AID 2284012);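 note: count of Hoechst-stained nuclei per well by high-content imaging in MCF-7 cells; cells exposed to compound for six hours; intended direction is loss of nuclei count meaning fewer cells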
In short: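 Chemicals in eight-point dilution series are added to MCF-7 cells for six hours, nuclei are stained with Hoechst and imaged, and per-well nuclei counts are fitted in both directions relative to DMSO controls.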

[17] = TOX21_p53_BLA_p5_viability: Viability Assessment in the Tox21 HCT-116 p53 Agonism Beta-lactamase Assay, Phase 5 (AID 2283600)
In short: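 Seeded cells (4000/well) settle 5 h before compound addition. Plates then incubate 16 h at 37C, receive FRET substrate for 2 h, and finally CellTiter-Glo, with luminescence measured after a 30 min room-temperature incubation.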

[18] = biological target: Glucocorticoid receptor (Homo sapiens) (UniProt P04150); experiment: ATG_GR_TRANS: Attagene TRANS-FACTORIAL HepG2 Assay for human Glucocorticoid Receptor (GR) (AID 2282978); settings: HepG2 Attagene TRANS GR reporter, mRNA transcription;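 note: activators score as hits since higher reporter transcript over DMSO is fitted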
In short: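 After 24 h incubation with test chemical, transfected HepG2 cells were lysed for RNA; reporter cDNA was amplified, FAM-labelled, HpaI-digested and sized on a capillary analyser. Signal gain relative to DMSO was scored.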

[19] = ACEA_ER_AUC_viability: ACEA Biosciences xCELLigence Real-Time Cell Analysis on Estrogen Receptor Agonism for Viability (AID 2283782);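 note: continuous compound exposure with impedance area under curve over 80 h; hit means loss of impedance signal meaning reduced cell growth or viability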
In short: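 T-47D human breast cells in phenol red-free RPMI1640 with 10% charcoal-stripped FBS were dosed with an 8-point 1:4 dilution series from 100 uM top final concentration, in duplicate. Impedance-based growth was followed for 80 h; AUC analysed versus DMSO.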

[20] = biological target: Bile acid receptor (Homo sapiens) (UniProt Q96RI1); experiment: ATG_FXR_TRANS: Attagene TRANS-FACTORIAL HepG2 Assay for Farnesoid X Receptor (FXR) (AID 2282979); settings: HepG2 Attagene TRANS FXR-GAL4 reporter transcription;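 note: hits raise reporter mRNA above DMSO so AC50 marks FXR activation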
In short: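 After 24 h chemical treatment of transfected HepG2 cells, GAL4-UAS reporter transcripts driven by an exogenous FXR-GAL4 fusion were measured by RT-PCR and capillary electrophoresis. Increases over DMSO were fitted.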

Measured: AC50

CN(C)CCN(C)C
inactive: [4]
inconclusive: [1] 99.5 µM and 107 µM | [2] 107 µM | [3] 176 µM and 107 µM | [5] 99.5 µM and 47.9 µM

CON=C(C(=O)OC)c1ccccc1CON=C(C)c1cccc(C(F)(F)F)c1
inconclusive: [3] 50 µM | [6] 11.9 µM | [8] 50 µM | [13] 20 µM | [14] 20 µM | [15] 20 µM | [16] 50 µM
active: [7] 17.4 µM | [9] 1.25 µM | [10] 3.12 µM | [11] 2.24 µM | [12] 1.65 µM

Clc1ccc(COC(Cn2ccnc2)c2ccc(Cl)cc2Cl)cc1 (centres undefined)
active: [5] 4.84 µM | [7] 11.2 µM | [8] 11.6 µM | [9] 60.3 µM and 33.3 µM and 23.5 µM | [10] 66.3 µM and 45.5 µM and 34.6 µM | [11] 79.1 µM and 60.7 µM and 38.7 µM | [17] 85.2 µM and 75.6 µM and 36.2 µM
inactive: [16]
inconclusive: [1] 18 µM

OCC(O)CO
inactive: [18] | [20] | [8]
inconclusive: [1] 100 µM | [4] 100 µM | [6] 100 µM and 4.8 nM | [7] 50 µM and 25 µM | [8] 25 µM | [10] 43.4 µM | [11] 46.1 µM and 23 µM | [17] 46.5 µM | [12] 86.8 µM | [19] 25 µM

C=CCc1ccccc1O
inconclusive: [4] 100 µM | [6] 100 µM | [17] 46.1 µM | [16] 50 µM

CCC(C)n1c(=O)[nH]c(C)c(Br)c1=O (centres undefined)
inconclusive: [3] 12.2 µM | [8] 50 µM | [10] 46.1 µM | [11] 46.1 µM | [12] 46.1 µM | [13] 13.4 µM | [14] 24.2 µM | [15] 32.6 µM | [19] 0.0914 µM
inactive: [1] | [20] | [2] | [6] | [7]

Source: PubChem BioAssay (EPA / NIEHS)
